These are literature values, as cited in publication PMC7408396, “IPEC-J2 rMdr1a, a New Cell Line with Functional Expression of Rat P-glycoprotein Encoded by Rat Mdr1a for Drug Screening Purposes” (Pharmaceutics, 2020).

The chains behind the UniProt entries cited, without tags or fusion partners.
UniProt P08183, whole entry: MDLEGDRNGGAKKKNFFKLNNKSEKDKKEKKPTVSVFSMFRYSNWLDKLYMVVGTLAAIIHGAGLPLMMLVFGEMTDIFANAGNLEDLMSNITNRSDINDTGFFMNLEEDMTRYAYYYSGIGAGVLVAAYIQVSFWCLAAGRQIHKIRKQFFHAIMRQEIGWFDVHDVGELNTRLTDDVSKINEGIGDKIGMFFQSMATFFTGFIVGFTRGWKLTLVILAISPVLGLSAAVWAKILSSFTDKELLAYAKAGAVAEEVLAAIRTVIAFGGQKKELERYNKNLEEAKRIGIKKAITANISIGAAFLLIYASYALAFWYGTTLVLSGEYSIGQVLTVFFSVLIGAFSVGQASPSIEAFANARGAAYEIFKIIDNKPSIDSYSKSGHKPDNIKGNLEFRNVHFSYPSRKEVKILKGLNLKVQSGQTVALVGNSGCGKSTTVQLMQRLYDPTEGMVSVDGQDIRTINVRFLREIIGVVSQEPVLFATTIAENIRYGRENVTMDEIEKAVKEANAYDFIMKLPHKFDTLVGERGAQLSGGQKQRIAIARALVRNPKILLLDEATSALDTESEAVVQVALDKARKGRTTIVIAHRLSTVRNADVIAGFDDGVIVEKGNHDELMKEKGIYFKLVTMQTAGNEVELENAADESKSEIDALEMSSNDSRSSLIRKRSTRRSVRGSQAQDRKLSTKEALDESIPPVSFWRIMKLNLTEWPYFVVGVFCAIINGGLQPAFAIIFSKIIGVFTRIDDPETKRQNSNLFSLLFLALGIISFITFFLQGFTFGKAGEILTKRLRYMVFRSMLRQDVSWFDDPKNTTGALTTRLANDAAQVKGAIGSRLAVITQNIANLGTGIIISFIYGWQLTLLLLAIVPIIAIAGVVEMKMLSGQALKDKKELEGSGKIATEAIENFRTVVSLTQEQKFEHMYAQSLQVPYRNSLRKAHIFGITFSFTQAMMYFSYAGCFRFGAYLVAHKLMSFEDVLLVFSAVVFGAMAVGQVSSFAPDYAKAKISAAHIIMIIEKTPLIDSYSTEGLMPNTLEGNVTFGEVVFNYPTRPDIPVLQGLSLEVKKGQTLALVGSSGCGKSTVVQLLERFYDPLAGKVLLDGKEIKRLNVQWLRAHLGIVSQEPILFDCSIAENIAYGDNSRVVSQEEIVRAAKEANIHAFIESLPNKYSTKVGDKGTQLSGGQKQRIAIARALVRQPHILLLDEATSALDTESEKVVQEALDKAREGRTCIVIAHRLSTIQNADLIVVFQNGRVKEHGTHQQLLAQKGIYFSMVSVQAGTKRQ

This data set has as its target human P-gp (Homo sapiens, UniProt P08183). The conditions noted are these: IPEC-J2 MDR1 cells overexpressing human P-gp; cited from earlier work.

For `CC(C)NCC(O)COc1ccc(CC(N)=O)cc1` (stereo not shown) [atenolol], the P-gp substrate identification entry is on record as “P-gp substrates”.
